Assay [1] has as its target GST-Foxp1 fusion protein (mouse) (mouse) (UniProt P58462). Description: pull-down; GST or GST-Foxp1 from bacterial extracts immobilised on GSH-agarose beads and washed; 1 ul of 35S-labelled in vitro translated Ikaros in 200 ul 0.02 M HEPES-KOH pH 7.9, 0.1% NP-40, 0.15 M NaCl, 1 mM DTT, 1 h at 4°C; quantified relative to input and to wild type (100%); only the target purified.

Chains of the proteins cited; added tags and fusions are not shown.
UniProt P58462: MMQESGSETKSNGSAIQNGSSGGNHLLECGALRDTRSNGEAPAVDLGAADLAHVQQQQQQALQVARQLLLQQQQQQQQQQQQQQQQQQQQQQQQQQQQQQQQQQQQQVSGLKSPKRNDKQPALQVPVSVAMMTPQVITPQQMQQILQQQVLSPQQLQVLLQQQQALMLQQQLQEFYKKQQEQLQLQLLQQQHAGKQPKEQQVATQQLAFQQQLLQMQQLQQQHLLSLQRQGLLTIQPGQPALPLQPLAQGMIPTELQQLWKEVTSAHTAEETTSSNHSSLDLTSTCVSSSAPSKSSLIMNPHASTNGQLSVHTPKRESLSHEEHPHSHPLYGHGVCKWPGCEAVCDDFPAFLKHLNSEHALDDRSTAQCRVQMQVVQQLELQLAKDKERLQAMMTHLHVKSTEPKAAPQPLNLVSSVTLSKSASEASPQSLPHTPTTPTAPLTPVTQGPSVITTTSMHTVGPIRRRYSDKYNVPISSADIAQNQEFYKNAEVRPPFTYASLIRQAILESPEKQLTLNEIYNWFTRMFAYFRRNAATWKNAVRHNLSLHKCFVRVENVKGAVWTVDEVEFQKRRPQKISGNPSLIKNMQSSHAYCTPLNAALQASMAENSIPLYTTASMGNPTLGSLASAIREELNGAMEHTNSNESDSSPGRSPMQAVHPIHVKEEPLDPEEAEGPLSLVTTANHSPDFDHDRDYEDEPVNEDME
UniProt Q03267: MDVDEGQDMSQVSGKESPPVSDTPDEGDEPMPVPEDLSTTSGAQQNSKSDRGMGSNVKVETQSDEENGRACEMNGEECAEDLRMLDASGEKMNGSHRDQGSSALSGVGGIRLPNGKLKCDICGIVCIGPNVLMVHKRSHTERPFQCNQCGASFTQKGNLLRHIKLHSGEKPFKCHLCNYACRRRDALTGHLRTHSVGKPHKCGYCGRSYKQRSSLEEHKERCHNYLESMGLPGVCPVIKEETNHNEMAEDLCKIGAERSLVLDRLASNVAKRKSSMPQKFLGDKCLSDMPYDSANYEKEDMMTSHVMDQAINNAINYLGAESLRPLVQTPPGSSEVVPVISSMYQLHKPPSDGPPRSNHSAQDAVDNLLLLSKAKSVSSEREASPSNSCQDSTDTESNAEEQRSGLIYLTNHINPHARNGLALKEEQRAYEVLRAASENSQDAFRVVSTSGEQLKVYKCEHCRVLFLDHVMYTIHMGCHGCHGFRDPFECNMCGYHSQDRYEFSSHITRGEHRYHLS

Assay [2] addresses HA-tagged Ikaros (wild type, mouse) (mouse) (UniProt Q03267). Description: co-IP; lysates of co-transfected 293T cells; IP with anti-FLAG or anti-Ikaros, immunoblot with anti-HA, anti-Ikaros or anti-FLAG; extracts treated with DNase I (no effect on the pulldowns), antibody-coupled G Dynabeads, 30 minutes at room temperature. A general note: Immunoblotting shows a protein as a band on a membrane.

Assay [3] deals with FLAG-tagged Foxp1 (wild type, mouse) (mouse) (UniProt P58462). The description is as above.
The target of assay [4] is Ikaros (endogenous, murine fetal liver pre-B cells) (mouse (endogenous in murine fetal liver pre-B cells)) (UniProt Q03267). Kind of assay: co-IP; lysate of wild-type murine fetal liver pre-B cells; IP with anti-Ikaros, anti-Foxp1 or control Ig, immunoblot with anti-Foxp1; extracts treated with DNase I, antibody-coupled G Dynabeads, 30 minutes at room temperature.

No constants are given. Whether binding was seen depends on the method and setting. In cells and extracts the contact can be indirect. Some results given as binding are weak or reduced against the parent protein; the word gives no strength.

Regarding “35S-labelled wild-type Ikaros (mouse, in vitro translated) (from UniProt Q03267 1-517)”, the binding result in assay [1] was “binds”. For “FLAG-tagged Foxp1 (wild type, mouse) (from UniProt P58462 1-705)”, in assay [2], the binding result is given as “binds”. Take “HA-tagged Ikaros (wild type, mouse) (from UniProt Q03267 1-517)”: the binding result in assay [3] is “binds”. Take “full-length Foxp1 (Foxp1A) (endogenous, murine fetal liver pre-B cells) (from UniProt P58462 1-705)”: in assay [4], the binding entry is “binds”.

Source of the values: publication PMC5323203.
